Data as given in patent US20230280275A1, “PHOTOACTIVATABLE VIBRATIONAL PROBES AND USES THEREOF” (California Institute of Technology, priority 2021, published 2023).

Legend:
[1] = Photoactivation (UV-uncaging) monitored by time-series spontaneous Raman spectra; assay type: physicochemical; conditions: handheld UV-lamp (254 nm and 365 nm) or 405 nm CW laser
Experimental: The 365 nm UV light used to activate cyclopropenones comes from a UV handlamp (Analytik Jena UVP EL Series Lamp, UVLS-24, 4 Watt, 2 UV 254/365 nm, typically used for TLC monitoring in organic synthesis). The power of 365 nm UV of this handlamp was measured to be 15 mW/cm2 on samples.
Next, the photo-uncaging kinetics for both 1-cyclo (1) and 2-cyclo (3) were compared. […] With 365 nm lamp illumination, the characteristic peaks of cyclopropenones (~1860 cm^-1) continue to drop while the alkyne peaks (2226 cm^-1) gradually increase for both molecules (FIG. 1D). […] The progression of the UV-activation reactions could also be confirmed by the change in the corresponding absorption spectra (FIG. 6).

[2] = test system: live HeLa cells; test: Quantification of SRS laser uncaging; assay type: cell-based; conditions: 20 µM, 30 minutes; OPO 25 mW, Stokes 60 mW; 80 µs/pixel; 405 nm activation = 100%

Row | SMILES | photo-uncaging / activated Raman signals after illumination [1] | Average frame activation by SRS imaging lasers [2] [%]
1 | O=c1c(-c2ccccc2)c1-c1ccccc1 [1-cyclo (1), diphenylcyclopropenone] | effectively uncage | –
2 | O=c1c(C#Cc2ccccc2)c1-c1ccccc1 [2-cyclo (3), 2-phenyl-3-(phenylethynyl)cycloprop-2-en-1-one] | effectively uncage | –
3 | O=c1c(C#Cc2ccccc2)c(C#Cc2ccccc2)c1=O [3-cyclo (5), 3,4-Bis(phenylethynyl)-3-cyclobutene-1,2-dione] | no activated Raman signals | –
4 | Cc1cc(C)c(-c2c(-c3c(C)cc(OCCC[P+](c4ccccc4)(c4ccccc4)c4ccccc4)cc3C)c2=O)c(C)c1 [Me-Mito (12)] | – | 1.4
